Source: the supplement of paper PMC9454738
Where a name gives a salt, the structure may show the parent alone. ± gives the standard deviation of the averaged measurements. The list shows a part of the results. Single values are uncertain here, since repeats match poorly.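 Test systems: triple-negative MDA-MB-231 breast cancer cells and their brain-metastatic MDA-MB-231BRM derivative, each stably carrying empty vector, full-length GLI1 or truncated tGLI1. Viability after 48 h was read by CellTiter-Blue and expressed against 1% DMSO vehicle. A compound was tGLI1-selective if it lowered viability 20% more in tGLI1 cells than in vector and GLI1 cells.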

test system: MDA-MB-231BRM Vector; assay: cell viability relative to vehicle (DMSO) control (fraction); higher = more viable cells (less growth inhibition); conditions: 0.5 µM; treatment time 48 h

Row | SMILES | cell viability
1 | C[C@H]1[C@H](C)CC[C@]2(C(=O)O)CC[C@]3(C)C(=CC[C@@H]4[C@@]5(C)C[C@@H](O)[C@H](O)[C@@](C)(CO)[C@@H]5CC[C@]43C)[C@H]12 [Asiatic Acid] | 1.1
2 | O=C1NC(=O)C(c2ccccc2[N+](=O)[O-])=C1Nc1ccc(O)c(Cl)c1 | 1.02
3 | Cc1c(Cn2c(C)nc3c(C(=O)O)cc(N4CCOCC4)cc32)cccc1C(F)(F)F | 0.481
4 | Cc1ccc(NC(=O)c2ccc(CN3CCN(C)CC3)cc2)cc1Nc1nccc(-c2cccnc2)n1 [Imatinib (STI571)] | 0.984
5 | CCC(=O)NCC[C@@H]1CCc2ccc3c(c21)CCO3 [Ramelteon (TAK-375)] | 1
6 | NC(=O)Nc1cc(-c2cccc(F)c2)sc1C(=O)N[C@H]1CCCNC1 | 1.13
7 | COc1cc2ncnc(Oc3ccc(CC(=O)Nc4cnn(C(C)C)c4)cc3)c2cc1OC | 1.06
8 | CC(C)(C)NS(=O)(=O)c1cncc(-c2cc(F)c3nc(N)nn3c2)c1 | 1.04
9 | O=C(Nc1cc(C(F)(F)F)cc(C(F)(F)F)c1)c1cc(Cl)ccc1O | 1.06
10 | CN1CCC(COc2cnc(-c3cccc(Cn4nc(-c5cccc(C#N)c5)ccc4=O)c3)nc2)CC1 | 1.04
11 | CC(C)CC(=O)Nc1n[nH]c2c1CN(C(=O)C1CCN(C)CC1)C2(C)C | 0.999
12 | COc1cc2ncc(-c3ccccc3)nc2cc1OC [Tyrphostin AG 1296] | 0.451
13 | C1=N/C2=N/c3ccc(OCCN4CCCC4)c(c3)COC/C=C/COCc3cccc(c3)C(=C1)N2 [Pacritinib (SB1518)] | 0.518
14 | O=C(NCCO)c1cccc(-c2cc(Nc3ccc(OC(F)(F)F)cc3)ncn2)c1 | 0.833
15 | N#CC(=C(/N)Sc1ccccc1N)/C(C#N)=C(\N)Sc1ccccc1N | 0.967
16 | CN(C)Cc1cccc(N/C(=C2\C(=O)Nc3cc(C(N)=O)ccc32)c2ccccc2)c1 | 1.06
17 | C[C@@H](CN1CC(=O)NC(=O)C1)N1CC(=O)NC(=O)C1 [Dexrazoxane Hydrochloride] | 1.05
18 | COc1ccc(-c2ccc3ncc4c(c3c2)n(-c2ccc(N3CCNCC3)c(C(F)(F)F)c2)c(=O)n4C)cn1 | 1.07
19 | CC(C)(C)c1cnc(CSc2cnc(NC(=O)C3CCNCC3)s2)o1 | 1.05
20 | Cc1c(F)cc(C(=O)NC2CC2)cc1-c1ccc(C(=O)NCC(C)(C)C)cn1 | 1.06

Row | SMILES | cell viability
21 | CCCC1O[C@@H]2C[C@H]3[C@@H]4CCC5=CC(=O)C=C[C@]5(C)[C@H]4[C@@H](O)C[C@]3(C)[C@]2(C(=O)CO)O1 (stereo partly drawn) [Budesonide] | 1.01
22 | C[C@@H](Oc1cc(-c2cnn(C3CCNCC3)c2)cnc1N)c1c(Cl)ccc(F)c1Cl | 0.971 ± 0.043
23 | O=C1NC(=O)/C(=C/c2ccc3nccc(-c4ccncc4)c3c2)S1 | 0.937
24 | Cc1ccc2nc(NCCN)c3ncc(C)n3c2c1 | 0.771
25 | CC(=O)[C@]1(O)Cc2c(O)c3c(c(O)c2[C@@H](O[C@H]2C[C@H](N)[C@H](O)[C@H](C)O2)C1)C(=O)c1ccccc1C3=O [Idarubicin HCl] | -0.049
26 | NC1(c2ccc(-c3nc4ccn5c(=O)[nH]nc5c4cc3-c3ccccc3)cc2)CCC1 | 0.926
27 | O=C1NC(=O)/C(=C/c2ccc(-c3ccc(F)cc3O)o2)S1 | 1.15
28 | CN(C)CCOc1ccc(-c2nc(-c3ccncc3)c(-c3ccc4c(c3)CC/C4=N\O)[nH]2)cc1 | 0.703
29 | O=C1NC(=O)/C(=C/c2cccc(C(F)(F)F)c2)S1 | 0.798
30 | C=CC(=O)Nc1ccc2ncnc(Nc3cccc(Br)c3)c2c1 | 1.02
31 | COc1cc(F)c(F)c(Nc2ccc(I)cc2F)c1NS(=O)(=O)C1(C[C@H](O)CO)CC1 [Refametinib (RDEA119, Bay 86-9766)] | 1
32 | Cc1cc(CN2CCN(c3c(Br)cnc4nc(-c5ccc(N6CCN(C)CC6)cc5)[nH]c34)CC2)no1 | 1.04
33 | Cc1cc(F)c(Nc2ncnc3cc(OCc4ccccc4)ccc23)cc1O | 1.04
34 | CN1CCC(CNc2ccc3ncc(-c4cccc(OC(F)(F)F)c4)n3n2)CC1 [SGI-1776 free base] | 1.01
35 | COc1cc(OC)c(/C=C/S(=O)(=O)Cc2ccc(OC)c(NCC(=O)O)c2)c(OC)c1 | 1.24
36 | COc1ncc(-c2ccc3nccc(-c4ccnnc4)c3c2)cc1NS(=O)(=O)c1ccc(F)cc1F | 1.04
37 | S=C(NCc1ccc2c(c1)OCO2)N1CCN(c2ncnc3c2oc2ccccc23)CC1 [Amuvatinib (MP-470)] | 0.958
38 | OCCn1cc(-c2cnc3nnn(Cc4ccc5ncccc5c4)c3n2)cn1 | 1.07
39 | Cc1c(NC(=O)c2ccc(C(C)(C)C)cc2)cccc1-c1cn(C)c(=O)c(Nc2ccc(C(=O)N3CCOCC3)cc2)n1 | 1.01

same assay, conditions: 5 µM; treatment time 48 h

Row | SMILES | cell viability
40 | C[C@H]1[C@H](C)CC[C@]2(C(=O)O)CC[C@]3(C)C(=CC[C@@H]4[C@@]5(C)C[C@@H](O)[C@H](O)[C@@](C)(CO)[C@@H]5CC[C@]43C)[C@H]12 [Asiatic Acid] | 0.976
41 | O=C1NC(=O)C(c2ccccc2[N+](=O)[O-])=C1Nc1ccc(O)c(Cl)c1 | 0.891
42 | Cc1c(Cn2c(C)nc3c(C(=O)O)cc(N4CCOCC4)cc32)cccc1C(F)(F)F | 0.48
43 | Cc1ccc(NC(=O)c2ccc(CN3CCN(C)CC3)cc2)cc1Nc1nccc(-c2cccnc2)n1 [Imatinib (STI571)] | 0.866
44 | CCC(=O)NCC[C@@H]1CCc2ccc3c(c21)CCO3 [Ramelteon (TAK-375)] | 0.981
45 | NC(=O)Nc1cc(-c2cccc(F)c2)sc1C(=O)N[C@H]1CCCNC1 | 0.682
46 | COc1cc2ncnc(Oc3ccc(CC(=O)Nc4cnn(C(C)C)c4)cc3)c2cc1OC | 0.968
47 | CC(C)(C)NS(=O)(=O)c1cncc(-c2cc(F)c3nc(N)nn3c2)c1 | 1.02
48 | O=C(Nc1cc(C(F)(F)F)cc(C(F)(F)F)c1)c1cc(Cl)ccc1O | 0.82
49 | CN1CCC(COc2cnc(-c3cccc(Cn4nc(-c5cccc(C#N)c5)ccc4=O)c3)nc2)CC1 | 1
50 | CC(C)CC(=O)Nc1n[nH]c2c1CN(C(=O)C1CCN(C)CC1)C2(C)C | 0.649
51 | COc1cc2ncc(-c3ccccc3)nc2cc1OC [Tyrphostin AG 1296] | 0.273
52 | C1=N/C2=N/c3ccc(OCCN4CCCC4)c(c3)COC/C=C/COCc3cccc(c3)C(=C1)N2 [Pacritinib (SB1518)] | 0.555
53 | O=C(NCCO)c1cccc(-c2cc(Nc3ccc(OC(F)(F)F)cc3)ncn2)c1 | 0.731
54 | N#CC(=C(/N)Sc1ccccc1N)/C(C#N)=C(\N)Sc1ccccc1N | 1.04
55 | CN(C)Cc1cccc(N/C(=C2\C(=O)Nc3cc(C(N)=O)ccc32)c2ccccc2)c1 | 1.02
56 | C[C@@H](CN1CC(=O)NC(=O)C1)N1CC(=O)NC(=O)C1 [Dexrazoxane Hydrochloride] | 1.02
57 | COc1ccc(-c2ccc3ncc4c(c3c2)n(-c2ccc(N3CCNCC3)c(C(F)(F)F)c2)c(=O)n4C)cn1 | 0.338
58 | CC(C)(C)c1cnc(CSc2cnc(NC(=O)C3CCNCC3)s2)o1 | 1.01
59 | Cc1c(F)cc(C(=O)NC2CC2)cc1-c1ccc(C(=O)NCC(C)(C)C)cn1 | 0.965

Row | SMILES | cell viability
60 | CCCC1O[C@@H]2C[C@H]3[C@@H]4CCC5=CC(=O)C=C[C@]5(C)[C@H]4[C@@H](O)C[C@]3(C)[C@]2(C(=O)CO)O1 (stereo partly drawn) [Budesonide] | 0.981
61 | C[C@@H](Oc1cc(-c2cnn(C3CCNCC3)c2)cnc1N)c1c(Cl)ccc(F)c1Cl | 0.926 ± 0.074
62 | O=C1NC(=O)/C(=C/c2ccc3nccc(-c4ccncc4)c3c2)S1 | 0.617
63 | Cc1ccc2nc(NCCN)c3ncc(C)n3c2c1 | 0.746
64 | CC(=O)[C@]1(O)Cc2c(O)c3c(c(O)c2[C@@H](O[C@H]2C[C@H](N)[C@H](O)[C@H](C)O2)C1)C(=O)c1ccccc1C3=O [Idarubicin HCl] | -0.0489
65 | NC1(c2ccc(-c3nc4ccn5c(=O)[nH]nc5c4cc3-c3ccccc3)cc2)CCC1 | 0.749
66 | O=C1NC(=O)/C(=C/c2ccc(-c3ccc(F)cc3O)o2)S1 | 1.16
67 | CN(C)CCOc1ccc(-c2nc(-c3ccncc3)c(-c3ccc4c(c3)CC/C4=N\O)[nH]2)cc1 | 0.546
68 | O=C1NC(=O)/C(=C/c2cccc(C(F)(F)F)c2)S1 | 0.785
69 | C=CC(=O)Nc1ccc2ncnc(Nc3cccc(Br)c3)c2c1 | 0.962
70 | COc1cc(F)c(F)c(Nc2ccc(I)cc2F)c1NS(=O)(=O)C1(C[C@H](O)CO)CC1 [Refametinib (RDEA119, Bay 86-9766)] | 1.02
71 | Cc1cc(CN2CCN(c3c(Br)cnc4nc(-c5ccc(N6CCN(C)CC6)cc5)[nH]c34)CC2)no1 | 0.965
72 | Cc1cc(F)c(Nc2ncnc3cc(OCc4ccccc4)ccc23)cc1O | 1.05
73 | CN1CCC(CNc2ccc3ncc(-c4cccc(OC(F)(F)F)c4)n3n2)CC1 [SGI-1776 free base] | 0.926
74 | COc1cc(OC)c(/C=C/S(=O)(=O)Cc2ccc(OC)c(NCC(=O)O)c2)c(OC)c1 | 1.07
75 | COc1ncc(-c2ccc3nccc(-c4ccnnc4)c3c2)cc1NS(=O)(=O)c1ccc(F)cc1F | 0.939
76 | S=C(NCc1ccc2c(c1)OCO2)N1CCN(c2ncnc3c2oc2ccccc23)CC1 [Amuvatinib (MP-470)] | 0.998
77 | OCCn1cc(-c2cnc3nnn(Cc4ccc5ncccc5c4)c3n2)cn1 | 0.964
78 | Cc1c(NC(=O)c2ccc(C(C)(C)C)cc2)cccc1-c1cn(C)c(=O)c(Nc2ccc(C(=O)N3CCOCC3)cc2)n1 | 0.725
